The assay has as its system BDF1 mice, P388 leukemia ip, median survival T/C. Description: NCI In Vivo Anticancer Drug Screen. Data for tumor model P388 Leukemia (intraperitoneal) in B6D2F1 (BDF1) mice. The following applies: T/C endpoint: median survival time, higher T/C = longer survival. A digest of the protocol:
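Survival ratio, drug arm over vehicle arm, in mice with a transplanted tumour.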

The mark [1] stands for this setting: dose: 200.0 mg/kg/injection, schedule: Q04DX003 (ip), vehicle: saline with Tween-80.
The mark [2] stands for this setting: dose: 400.0 mg/kg/injection, schedule: Q04DX003 (ip), vehicle: saline with Tween-80.
[3] abbreviates: dose: 100.0 mg/kg/injection, schedule: Q01DX009 (ip), vehicle: Klucel (hydroxypropylcellulose) (HPC).
The mark [4] stands for this setting: dose: 400.0 mg/kg/injection, schedule: Q04DX003 (ip), vehicle: saline.

The list does not hold the whole screen: it is rich in T/C values a quarter to a half above the control, in often repeated tests (any T/C) and in doses without a T/C. Other doses and runs of a compound stand elsewhere. T/C gives the treated animals as a percentage of the vehicle group. Some entries give survivors of the animals treated and no T/C: the source holds a T/C of zero for them, seemingly a mark for toxic or unscored doses. Some doses without a T/C left all or most animals alive at the check, yet need not have been tolerated: the source hardly ever lists a survival T/C far under the control, and the zero likely stands for such cases as well. Counts of survivors are from the toxicity check (mostly the fifth day) where no day follows; animals may have died later. Schedule codes are those of the source, read here as Q, the interval in days (D) or hours (H), X, the number of doses. Where survival is the endpoint, the PubChem record calls one and a half times the control and up active, and a quarter to a half above the control has no call in these data; cut-offs in other NCI protocols can differ. Some T/C values are followed by the survivors on the day toxicity was checked, most often the fifth; where none is given, no animal had died by that day. Some entries were tested several times; the results are listed from low to high.

Turning to `CCC(CN(C)C)C(=O)c1ccccc1` (stereo unspecified), the survivor count by setting is: under setting [1], 2 of 6; (dose: 400.0 mg/kg/injection, schedule: Q01DX001 (ip), vehicle: saline with Tween-80) 1 of 6; under setting [2], 0 of 6.

As to `Cc1c(O)c2c(c(O)c1Cc1ccc(CN)cc1)C(=O)c1ccccc1C2=O`, the survivor count was 6 of 6 (dose: 50.0 mg/kg/injection, schedule: Q01DX009 (ip), vehicle: water); 1 of 6 (dose: 100.0 mg/kg/injection, schedule: Q01DX009 (ip), vehicle: water); 1 of 6 (dose: 200.0 mg/kg/injection, schedule: Q01DX009 (ip), vehicle: water).

Turning to `CC1=[N+](C)C(C)(C)CC(C)O1` (stereo unspecified), the survivor count (dose: 11.0 mg/kg/injection, schedule: Q01DX009 (ip), vehicle: saline) is reported as 6 of 6; the survivor count (dose: 90.0 mg/kg/injection, schedule: Q01DX009 (ip), vehicle: saline) is reported as 0 of 6; the survivor count (dose: 135.0 mg/kg/injection, schedule: Q01DX009 (ip), vehicle: saline) is 0 of 6. Moreover, the T/C (dose: 25.0 mg/kg/injection, schedule: Q01DX009 (ip), vehicle: saline) is 127 % of control.

With `Nc1ncnc2c1cnn2Cc1ccc(Cl)cc1`, the T/C (dose: 25.0 mg/kg/injection, schedule: Q04DX003 (ip), vehicle: Klucel (hydroxypropylcellulose) (HPC)) is 127 % of control. In addition, under setting [3], the survivor count is 6 of 6.

For the compound `COc1cccc2c1C(=O)c1c(O)c3c(c(O)c1C2=O)C[C@@](O)(/C(CO)=N/NC(=O)c1ccc(Cl)c(Cl)c1)C[C@@H]3OC1CC(N)C(O)C(C)O1` (stereo partly specified), where the note is “dose: 6.25 mg/kg/injection, schedule: Q01DX009 (ip), vehicle: water”, the T/C was 140 % of control. The survivor count (dose: 25.0 mg/kg/injection, schedule: Q01DX009 (ip), vehicle: water) was 6 of 6.

With `COc1ccc(C2=C[P+](c3ccccc3)(c3ccccc3)C=C(c3ccccc3)O2)cc1`, the survivor count runs as follows: (dose: 50.0 mg/kg/injection, schedule: Q01DX005 (ip), vehicle: saline with Tween-80) 0 of 5; (dose: 100.0 mg/kg/injection, schedule: Q01DX005 (ip), vehicle: saline with Tween-80) 0 of 5; (dose: 200.0 mg/kg/injection, schedule: Q01DX005 (ip), vehicle: saline with Tween-80) 0 of 5.

Consider `N#CSCCSC#N`, for which the survivor count (dose: 100.0 mg/kg/injection, schedule: Q04DX002 (ip), vehicle: Klucel (hydroxypropylcellulose) (HPC)) was 0 of 6; the survivor count (dose: 200.0 mg/kg/injection, schedule: Q04DX002 (ip), vehicle: Klucel (hydroxypropylcellulose) (HPC)) is recorded as 0 of 6; the survivor count (dose: 400.0 mg/kg/injection, schedule: Q04DX002 (ip), vehicle: Klucel (hydroxypropylcellulose) (HPC)) is given as 0 of 6.

Consider `CS(=O)(=O)OCCN(CCOS(C)(=O)=O)c1ccc(C=Nc2ccc3oc(=O)ccc3c2)cc1`, for which the T/C under setting [1] was 145 % of control. For the same compound, the survivor count is reported as 6 of 6 (dose: 300.0 mg/kg/injection, schedule: Q04DX003 (ip), vehicle: saline with Tween-80) and 6 of 6 under setting [2].

Regarding `N#Cc1cnc2nc(N)nc(N)c2c1`, the survivor count is given as 1 of 6 (dose: 400.0 mg/kg/injection, schedule: Q01DX009 (ip), vehicle: saline) and 4 of 6 under setting [4].

For `O=NN(CCCl)C(=O)NC1CCCCC1`, the T/C was 132 % of control (dose: 5.5 mg/kg/injection, schedule: Q01DX009 (ip), vehicle: Klucel (hydroxypropylcellulose) (HPC)); 144 % of control (dose: 8.2 mg/kg/injection, schedule: Q01DX009 (ip), vehicle: Klucel (hydroxypropylcellulose) (HPC)); 132 % of control (dose: 50.0 mg/kg/injection, schedule: Q01DX009 (ip), vehicle: saline); 146 % of control (dose: 60.0 mg/kg/injection, schedule: Q01DX001 (ip), vehicle: saline); 137 % of control (dose: 100.0 mg/kg/injection, schedule: Q01DX001 (ip), vehicle: Klucel (hydroxypropylcellulose) (HPC)); 135 % of control (dose: 135.0 mg/kg/injection, schedule: Q01DX001 (oral), vehicle: carboxymethylcellulose (CMC)). Also, the survivor count is given as 2 of 3 (dose: 25.0 mg/kg/injection, schedule: Q01DX009 (ip), vehicle: Klucel (hydroxypropylcellulose) (HPC)); 3 of 3 under setting [3]; 10 of 10 (dose: 150.0 mg/kg/injection, schedule: Q01DX001 (ip), vehicle: carboxymethylcellulose (CMC)); 10 of 10 (dose: 200.0 mg/kg/injection, schedule: Q01DX001 (oral), vehicle: carboxymethylcellulose (CMC)); 0 of 3 (dose: 200.0 mg/kg/injection, schedule: Q01DX009 (ip), vehicle: Klucel (hydroxypropylcellulose) (HPC)); 0 of 3 (dose: 400.0 mg/kg/injection, schedule: Q01DX009 (ip), vehicle: Klucel (hydroxypropylcellulose) (HPC)).

Consider `COc1ccc(C2=NNC(=O)OC2c2ccccc2)cc1` (stereo unspecified), for which the T/C (dose: 100.0 mg/kg/injection, schedule: Q01DX009 (ip), vehicle: saline with Tween-80) is 140 % of control.

Take `Clc1ccc(C[P+](c2ccccc2)(c2ccccc2)c2ccccc2)cc1Cl`: the survivor count was 3 of 6 (dose: 2.6 mg/kg/injection, schedule: Q04DX003 (ip), vehicle: saline); 1 of 6 (dose: 4.0 mg/kg/injection, schedule: Q04DX003 (ip), vehicle: saline); 3 of 6 (dose: 5.4 mg/kg/injection, schedule: Q01DX001 (ip), vehicle: saline); 6 of 6 (dose: 5.6 mg/kg/injection, schedule: Q01DX009 (ip), vehicle: saline); 1 of 6 (dose: 6.0 mg/kg/injection, schedule: Q04DX003 (ip), vehicle: saline); 6 of 6 (dose: 8.4 mg/kg/injection, schedule: Q01DX009 (ip), vehicle: saline).

As for `CC(=O)[C@@]12OC(C)(C)O[C@@H]1C[C@H]1[C@@H]3C[C@H](C)C4=CC(=O)CC[C@]4(C)[C@H]3CC[C@@]12C`, under “dose: 400.0 mg/kg/injection, schedule: Q01DX009 (ip), vehicle: saline with Tween-80”, the survivor count is recorded as 2 of 6.

As to `Cc1cccc(C(=O)NN)c1O`, the survivor count (dose: 50.0 mg/kg/injection, schedule: Q01DX009 (ip), vehicle: saline + alcohol) is recorded as 6 of 6 and the survivor count (dose: 200.0 mg/kg/injection, schedule: Q01DX009 (ip), vehicle: saline + alcohol) was 3 of 6.

As for `COc1cc([C@@H]2c3cc4c(cc3[C@@H](OC3OC5CO[C@@H](c6cccs6)OC5C(O)C3O)[C@H]3COC(=O)[C@H]23)OCO4)cc(OC)c1O` (stereo partly specified), the survivor count (dose: 4.0 mg/kg/injection, schedule: Q01DX010 (ip), vehicle: saline) is reported as 6 of 6.

Turning to `CCC(=O)NC1=C(N2CC2)C(=O)C(NC(=O)CC)=C(N2CC2)C1=O`, the T/C (dose: 0.5 mg/kg/injection, schedule: Q01DX009 (ip), vehicle: saline) is 138 and 140 % of control.

Regarding `COc1ccc(-c2csc(=[N+]3CCCCC3)s2)cc1`, the survivor count (dose: 100.0 mg/kg/injection, schedule: Q04DX003 (ip), vehicle: saline) is 0 of 6.

For `O=C1c2ccccc2C(=O)c2c(NCCN3CCCCC3)ccc(NCCN3CCCCC3)c21`, the T/C (dose: 100.0 mg/kg/injection, schedule: Q01DX009 (ip), vehicle: other) was 135 % of control. Further, the survivor count (dose: 200.0 mg/kg/injection, schedule: Q01DX009 (ip), vehicle: other) was 1 of 6 and the survivor count (dose: 400.0 mg/kg/injection, schedule: Q01DX009 (ip), vehicle: other) is 0 of 6.

For `CCCCCCCCCCC(O)CN1CCN(c2ccc(C)cc2)CC1` (stereo unspecified), the T/C (dose: 400.0 mg/kg/injection, schedule: Q04DX003 (ip), vehicle: saline sonified) was 130 % of control. Under setting [2], the survivor count is reported as 6 of 6.

Take `O=C(Nc1ccc(S(=O)(=O)O)cc1)c1ccc([N+](=O)[O-])cc1`: under setting [4], the T/C was 90, 120, 127, 165 % of control [5 of 6 alive].
